The list shows a part of the results.
How the values were obtained:
Assay in all cases: log2 fold change, soluble protein after heating vs DMSO (PISA); higher = thermal stabilisation; K562 lysate, 10 uM; active = over 0.2 and 3.5 SD of the protein, either way, in both replicates (recomputed)
nilotinib = compound: Cc1cn(-c2cc(NC(=O)c3ccc(C)c(Nc4nccc(-c5cccnc5)n4)c3)cc(C(F)(F)F)c2)cn1 [nilotinib]
Method in brief: (§1)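 Pellets of K562 cells were dounce-homogenised in PBS pH 7.4 with 1 mM MgCl2, and the crude extract was held at 1 mg/mL protein for a 30 min treatment with 10 μM compound. Aliquots were heated for 3 min over 48°C-58°C and pooled before NP-40 was added to 0.5% at 4°C. The supernatant from 21,000xg for 90 min was quantified by TMTpro 16plex LC-MS/MS with channel sums equalised. Values are reported from duplicates as log-two fold change in thermal stability relative to solvent controls.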

Amino acid sequences for entries named in this document (tags omitted). A change or cut given only in a name is not applied to a line headed by its entry.
UniProt P41236: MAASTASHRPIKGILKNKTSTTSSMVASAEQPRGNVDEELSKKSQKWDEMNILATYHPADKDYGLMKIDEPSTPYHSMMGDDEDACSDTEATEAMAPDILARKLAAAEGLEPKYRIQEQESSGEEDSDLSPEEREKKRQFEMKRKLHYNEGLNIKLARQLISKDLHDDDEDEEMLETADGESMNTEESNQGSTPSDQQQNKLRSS
UniProt P50897: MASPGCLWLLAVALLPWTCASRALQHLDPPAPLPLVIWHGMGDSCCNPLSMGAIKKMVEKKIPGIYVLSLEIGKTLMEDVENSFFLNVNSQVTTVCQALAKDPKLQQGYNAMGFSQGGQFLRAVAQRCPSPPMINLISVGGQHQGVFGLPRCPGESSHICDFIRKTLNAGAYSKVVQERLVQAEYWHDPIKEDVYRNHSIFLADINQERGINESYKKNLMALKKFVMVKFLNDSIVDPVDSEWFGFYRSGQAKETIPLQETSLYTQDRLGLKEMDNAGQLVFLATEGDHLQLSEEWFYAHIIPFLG
UniProt P05771, whole entry, looked up: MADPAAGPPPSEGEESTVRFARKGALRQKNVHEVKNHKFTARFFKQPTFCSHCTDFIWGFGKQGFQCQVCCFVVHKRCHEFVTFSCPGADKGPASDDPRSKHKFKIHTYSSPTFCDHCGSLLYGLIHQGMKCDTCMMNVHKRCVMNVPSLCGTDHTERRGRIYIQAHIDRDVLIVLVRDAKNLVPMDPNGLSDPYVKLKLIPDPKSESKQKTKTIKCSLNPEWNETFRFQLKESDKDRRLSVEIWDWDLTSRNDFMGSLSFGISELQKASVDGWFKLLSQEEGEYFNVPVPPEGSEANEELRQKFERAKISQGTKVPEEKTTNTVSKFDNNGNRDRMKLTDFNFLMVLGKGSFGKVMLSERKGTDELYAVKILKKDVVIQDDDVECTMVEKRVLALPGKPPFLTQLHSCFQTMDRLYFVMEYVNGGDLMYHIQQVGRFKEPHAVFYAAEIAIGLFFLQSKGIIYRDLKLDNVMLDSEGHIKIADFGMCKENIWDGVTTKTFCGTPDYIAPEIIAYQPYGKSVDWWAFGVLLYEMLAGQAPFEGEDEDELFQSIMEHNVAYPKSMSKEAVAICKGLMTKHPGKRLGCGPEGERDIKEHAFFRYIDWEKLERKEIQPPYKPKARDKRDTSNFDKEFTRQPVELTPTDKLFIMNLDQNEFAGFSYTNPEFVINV
UniProt Q13523: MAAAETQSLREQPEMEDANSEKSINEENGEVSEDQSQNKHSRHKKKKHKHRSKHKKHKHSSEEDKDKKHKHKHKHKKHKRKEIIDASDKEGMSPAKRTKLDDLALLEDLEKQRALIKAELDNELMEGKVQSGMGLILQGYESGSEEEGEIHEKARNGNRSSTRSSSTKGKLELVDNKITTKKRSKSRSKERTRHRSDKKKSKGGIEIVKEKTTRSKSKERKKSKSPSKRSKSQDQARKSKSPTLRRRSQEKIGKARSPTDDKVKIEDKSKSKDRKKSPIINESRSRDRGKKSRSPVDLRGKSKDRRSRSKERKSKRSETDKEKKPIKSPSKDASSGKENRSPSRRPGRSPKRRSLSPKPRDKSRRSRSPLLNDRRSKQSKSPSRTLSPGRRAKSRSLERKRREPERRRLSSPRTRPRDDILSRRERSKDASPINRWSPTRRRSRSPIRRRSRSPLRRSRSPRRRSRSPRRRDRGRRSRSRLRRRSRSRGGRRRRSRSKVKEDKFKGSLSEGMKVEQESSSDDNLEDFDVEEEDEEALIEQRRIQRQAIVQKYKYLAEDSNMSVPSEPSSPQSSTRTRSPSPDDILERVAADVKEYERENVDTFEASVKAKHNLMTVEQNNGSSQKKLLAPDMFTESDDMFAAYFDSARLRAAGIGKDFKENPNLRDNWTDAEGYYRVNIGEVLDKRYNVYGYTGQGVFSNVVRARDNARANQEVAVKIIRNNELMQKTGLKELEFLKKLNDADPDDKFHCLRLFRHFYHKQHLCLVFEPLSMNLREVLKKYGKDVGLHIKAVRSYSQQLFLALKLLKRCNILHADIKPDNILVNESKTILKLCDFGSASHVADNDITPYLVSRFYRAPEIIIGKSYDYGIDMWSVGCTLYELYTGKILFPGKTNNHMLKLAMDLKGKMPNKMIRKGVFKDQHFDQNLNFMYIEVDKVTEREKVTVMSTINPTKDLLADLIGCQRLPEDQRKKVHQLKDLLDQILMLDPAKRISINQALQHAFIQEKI
UniProt P14314: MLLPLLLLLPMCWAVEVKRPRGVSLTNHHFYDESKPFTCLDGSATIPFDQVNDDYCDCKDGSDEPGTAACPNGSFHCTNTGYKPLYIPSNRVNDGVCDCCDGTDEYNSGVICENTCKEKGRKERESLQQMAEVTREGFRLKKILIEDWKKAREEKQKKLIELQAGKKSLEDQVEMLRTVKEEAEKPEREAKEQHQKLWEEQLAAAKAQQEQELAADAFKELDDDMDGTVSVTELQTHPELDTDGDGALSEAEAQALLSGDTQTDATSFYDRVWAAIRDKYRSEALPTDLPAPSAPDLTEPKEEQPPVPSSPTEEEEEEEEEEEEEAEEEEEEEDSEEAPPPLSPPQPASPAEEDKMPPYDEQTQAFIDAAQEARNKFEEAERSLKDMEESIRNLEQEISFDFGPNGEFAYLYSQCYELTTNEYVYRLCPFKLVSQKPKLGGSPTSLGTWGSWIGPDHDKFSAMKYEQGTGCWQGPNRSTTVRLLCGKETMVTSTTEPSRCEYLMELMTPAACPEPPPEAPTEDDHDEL
UniProt P32119: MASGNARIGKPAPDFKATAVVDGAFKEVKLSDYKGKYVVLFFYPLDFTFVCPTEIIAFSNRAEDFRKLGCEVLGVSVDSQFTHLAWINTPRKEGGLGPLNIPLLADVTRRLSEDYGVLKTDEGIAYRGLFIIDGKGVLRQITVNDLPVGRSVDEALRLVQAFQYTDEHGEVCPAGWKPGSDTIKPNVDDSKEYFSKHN
UniProt Q8WY54: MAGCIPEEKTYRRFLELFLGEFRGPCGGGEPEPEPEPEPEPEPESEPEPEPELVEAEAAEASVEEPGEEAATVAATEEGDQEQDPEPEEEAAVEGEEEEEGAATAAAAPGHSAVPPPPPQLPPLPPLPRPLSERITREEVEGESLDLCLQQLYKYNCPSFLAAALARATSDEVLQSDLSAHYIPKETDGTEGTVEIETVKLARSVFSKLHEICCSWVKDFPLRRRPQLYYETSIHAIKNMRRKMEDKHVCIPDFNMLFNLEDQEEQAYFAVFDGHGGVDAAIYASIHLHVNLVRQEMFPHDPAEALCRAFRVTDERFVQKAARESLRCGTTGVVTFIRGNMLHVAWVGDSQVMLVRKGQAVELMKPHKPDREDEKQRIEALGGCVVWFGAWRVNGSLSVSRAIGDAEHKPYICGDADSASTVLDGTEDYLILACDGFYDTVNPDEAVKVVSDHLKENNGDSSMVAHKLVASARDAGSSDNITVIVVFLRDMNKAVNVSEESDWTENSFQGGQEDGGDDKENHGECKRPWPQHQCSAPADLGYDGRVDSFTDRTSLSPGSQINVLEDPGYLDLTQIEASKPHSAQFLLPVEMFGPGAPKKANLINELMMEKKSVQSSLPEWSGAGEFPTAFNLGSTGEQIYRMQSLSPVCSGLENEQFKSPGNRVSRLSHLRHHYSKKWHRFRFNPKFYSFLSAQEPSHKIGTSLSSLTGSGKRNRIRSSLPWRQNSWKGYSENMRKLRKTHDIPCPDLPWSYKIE
UniProt Q06830: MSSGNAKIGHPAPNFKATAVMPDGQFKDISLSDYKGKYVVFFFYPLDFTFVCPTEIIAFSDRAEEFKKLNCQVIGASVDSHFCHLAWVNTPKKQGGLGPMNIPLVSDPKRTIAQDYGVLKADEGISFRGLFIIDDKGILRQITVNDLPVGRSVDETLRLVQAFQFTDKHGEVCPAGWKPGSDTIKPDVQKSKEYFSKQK
UniProt Q6P2P2: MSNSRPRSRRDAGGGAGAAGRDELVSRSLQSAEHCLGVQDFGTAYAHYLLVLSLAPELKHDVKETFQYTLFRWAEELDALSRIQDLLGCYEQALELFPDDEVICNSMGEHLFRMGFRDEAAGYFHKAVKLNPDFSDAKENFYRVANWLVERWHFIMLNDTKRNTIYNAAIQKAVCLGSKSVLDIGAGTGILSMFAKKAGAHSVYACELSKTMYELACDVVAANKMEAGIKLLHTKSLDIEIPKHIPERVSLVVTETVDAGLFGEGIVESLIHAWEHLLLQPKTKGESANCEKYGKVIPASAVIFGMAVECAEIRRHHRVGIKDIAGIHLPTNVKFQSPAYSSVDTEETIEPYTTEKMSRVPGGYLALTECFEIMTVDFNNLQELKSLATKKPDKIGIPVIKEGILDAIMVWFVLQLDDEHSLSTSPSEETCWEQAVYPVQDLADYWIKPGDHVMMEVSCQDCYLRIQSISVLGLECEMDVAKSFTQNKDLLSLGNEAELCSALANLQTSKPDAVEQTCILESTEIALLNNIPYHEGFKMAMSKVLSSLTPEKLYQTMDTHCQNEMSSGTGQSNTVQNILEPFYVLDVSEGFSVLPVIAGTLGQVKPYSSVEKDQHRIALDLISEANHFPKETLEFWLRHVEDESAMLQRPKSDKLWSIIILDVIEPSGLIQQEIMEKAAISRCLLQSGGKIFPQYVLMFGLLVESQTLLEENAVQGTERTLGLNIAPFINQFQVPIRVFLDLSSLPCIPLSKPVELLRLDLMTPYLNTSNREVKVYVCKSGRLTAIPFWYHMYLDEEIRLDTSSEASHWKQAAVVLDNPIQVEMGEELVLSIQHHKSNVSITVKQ
UniProt P49643: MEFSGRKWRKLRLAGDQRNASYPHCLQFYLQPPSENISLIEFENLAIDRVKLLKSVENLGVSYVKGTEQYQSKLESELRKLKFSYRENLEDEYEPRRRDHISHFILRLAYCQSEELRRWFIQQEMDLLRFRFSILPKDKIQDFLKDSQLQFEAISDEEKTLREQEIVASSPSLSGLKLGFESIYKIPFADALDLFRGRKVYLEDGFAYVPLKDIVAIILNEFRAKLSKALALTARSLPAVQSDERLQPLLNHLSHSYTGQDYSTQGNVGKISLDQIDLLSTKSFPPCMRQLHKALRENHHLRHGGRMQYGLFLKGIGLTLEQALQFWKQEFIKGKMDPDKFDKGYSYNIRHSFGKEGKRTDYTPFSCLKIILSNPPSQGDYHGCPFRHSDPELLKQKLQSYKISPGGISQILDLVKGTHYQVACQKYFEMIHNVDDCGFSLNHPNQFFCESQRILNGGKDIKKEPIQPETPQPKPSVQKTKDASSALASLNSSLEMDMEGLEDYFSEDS
UniProt P42785: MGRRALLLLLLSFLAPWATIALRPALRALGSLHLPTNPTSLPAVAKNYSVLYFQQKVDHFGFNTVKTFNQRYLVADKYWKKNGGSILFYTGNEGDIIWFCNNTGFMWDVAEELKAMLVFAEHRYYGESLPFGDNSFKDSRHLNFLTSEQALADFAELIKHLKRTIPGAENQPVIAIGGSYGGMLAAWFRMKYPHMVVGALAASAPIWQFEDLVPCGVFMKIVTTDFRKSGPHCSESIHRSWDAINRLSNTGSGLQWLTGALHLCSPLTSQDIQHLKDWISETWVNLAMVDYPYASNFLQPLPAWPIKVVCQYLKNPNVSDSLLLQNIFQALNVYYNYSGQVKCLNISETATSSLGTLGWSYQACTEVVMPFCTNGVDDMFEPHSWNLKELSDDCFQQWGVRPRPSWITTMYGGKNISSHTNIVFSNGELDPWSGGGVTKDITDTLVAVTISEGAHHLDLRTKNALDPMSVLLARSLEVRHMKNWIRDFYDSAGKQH
UniProt Q8WWY3: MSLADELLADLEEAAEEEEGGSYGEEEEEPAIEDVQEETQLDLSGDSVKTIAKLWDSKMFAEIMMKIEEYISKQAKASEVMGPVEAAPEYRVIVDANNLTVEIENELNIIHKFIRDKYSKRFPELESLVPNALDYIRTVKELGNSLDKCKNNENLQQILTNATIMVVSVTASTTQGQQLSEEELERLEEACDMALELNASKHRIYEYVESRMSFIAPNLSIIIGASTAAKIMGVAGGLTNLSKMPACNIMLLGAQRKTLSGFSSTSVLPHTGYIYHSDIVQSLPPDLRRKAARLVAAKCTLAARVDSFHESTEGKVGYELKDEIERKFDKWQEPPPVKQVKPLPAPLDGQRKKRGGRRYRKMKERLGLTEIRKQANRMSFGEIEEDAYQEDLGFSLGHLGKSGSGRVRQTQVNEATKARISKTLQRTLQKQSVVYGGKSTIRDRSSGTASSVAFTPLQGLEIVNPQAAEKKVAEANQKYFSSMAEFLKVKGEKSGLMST
UniProt Q15435: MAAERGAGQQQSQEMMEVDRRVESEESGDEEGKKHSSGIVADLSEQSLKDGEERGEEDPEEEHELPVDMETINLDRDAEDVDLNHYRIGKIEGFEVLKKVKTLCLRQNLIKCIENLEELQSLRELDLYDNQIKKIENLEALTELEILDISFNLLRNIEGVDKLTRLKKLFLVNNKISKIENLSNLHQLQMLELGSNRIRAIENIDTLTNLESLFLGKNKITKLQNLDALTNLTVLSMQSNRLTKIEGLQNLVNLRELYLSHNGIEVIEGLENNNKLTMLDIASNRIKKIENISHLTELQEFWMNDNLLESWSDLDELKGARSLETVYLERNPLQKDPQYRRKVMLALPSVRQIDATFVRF

[1] = compound: Cc1nc(Nc2n[nH]c3c2CN(C(=O)N[C@H](CN(C)C)c2ccccc2)C3(C)C)c2sccc2n1
Method in brief: as §1

dasatinib = compound: Cc1nc(Nc2ncc(C(=O)Nc3c(C)cccc3Cl)s2)cc(N2CCN(CCO)CC2)n1 [dasatinib]
Method in brief: as §1

[2] = compound: Cc1ncc(-c2ccnc(Nc3ccc(S(C)(=O)=O)cc3)n2)n1C(C)C
Method in brief: as §1

[3] = compound: Cn1cc(-c2ccc3c(c2)CCN3C(=O)Cc2cccc(C(F)(F)F)c2)c2c(N)ncnc21
Method in brief: as §1

quisinostat = compound: Cn1cc(CNCC2CCN(c3ncc(C(=O)NO)cn3)CC2)c2ccccc21 [quisinostat]
Method in brief: as §1

tipifarnib = compound: Cn1cncc1[C@@](N)(c1ccc(Cl)cc1)c1ccc2c(c1)c(-c1cccc(Cl)c1)cc(=O)n2C [tipifarnib]
Method in brief: as §1

[4] = compound: NC(=O)Nc1cc(-c2cccc(F)c2)sc1C(=O)N[C@H]1CCCNC1
Method in brief: as §1

[5] = compound: NC(=O)c1cnc(N[C@@H]2CCCC[C@@H]2N)nc1Nc1cccc(-n2nccn2)c1
Method in brief: as §1

[6] = compound: NC1(c2ccc(-c3nc4ccn5c(=O)[nH]nc5c4cc3-c3ccccc3)cc2)CCC1
Method in brief: as §1

[7] = compound: NCC(=O)Nc1ccc(-n2nc(C(F)(F)F)cc2-c2ccc3c(ccc4ccccc43)c2)cc1
Method in brief: as §1

vorinostat = compound: O=C(CCCCCCC(=O)Nc1ccccc1)NO [vorinostat]
Method in brief: as §1

silmitasertib = compound: O=C(O)c1ccc2c(c1)nc(Nc1cccc(Cl)c1)c1ccncc12 [silmitasertib]
Method in brief: as §1

[8] = compound: O=C1NC(=O)C(c2cnc3ccccn23)=C1c1cn2c3c(cc(F)cc13)CN(C(=O)N1CCCCC1)CC2
Method in brief: as §1

entospletinib = compound: c1cn2cc(-c3ccc4cn[nH]c4c3)nc(Nc3ccc(N4CCOCC4)cc3)c2n1 [entospletinib]
Method in brief: as §1

Measured: log2 fold change

PPP1R2 (UniProt P41236)
inactive: nilotinib -0.013 | [1] -0.015 | dasatinib -0.016 | [2] -0.01 | [3] 0.093 | quisinostat -0.011 | tipifarnib 0.047 | [4] 0.004 | [5] -0.011 | [6] 0.036 | [7] 0.001 | vorinostat 0.106 | silmitasertib -0.086 | [8] 0.029 | entospletinib 0.049

PPT1 (UniProt P50897)
inactive: nilotinib 0.018 | [1] -0.044 | dasatinib -0.071 | [2] -0.038 | [3] 0.029 | quisinostat 0.024 | tipifarnib 0.049 | [4] 0.026 | [5] 0.001 | [6] -0.038 | [7] -0.007 | vorinostat 0.059 | silmitasertib -0.023 | [8] -0.006 | entospletinib -0.015

PRKCB isoform 2 (UniProt P05771)
inactive: nilotinib -0.014 | dasatinib -0.06 | [2] -0.093 | [3] -0.007 | quisinostat 0.017 | tipifarnib -0.038 | [5] 0.181 | [6] -0.037 | [7] 0.046 | vorinostat -0.145 | silmitasertib 0.012 | [8] -0.164 | entospletinib 0.004
active: [1] 0.256 | [4] -0.416

PRPF4B (UniProt Q13523)
inactive: nilotinib 0.004 | [1] -0.042 | dasatinib 0.007 | [2] 0.073 | [3] -0.002 | quisinostat -0.015 | tipifarnib -0.009 | [4] -0.021 | [5] 0.045 | [6] -0.028 | [7] 0 | vorinostat 0.108 | silmitasertib 0.049 | [8] 0.004 | entospletinib -0.033

PRKCQ (UniProt Q04759)
inactive: nilotinib -0.03 | [1] 0.001 | dasatinib -0.111 | [2] -0.079 | [3] -0.004 | quisinostat 0.029 | tipifarnib 0.023 | [4] -0.214 | [5] -0.02 | [6] 0.006 | [7] 0.014 | vorinostat -0.172 | silmitasertib 0.009 | [8] -0.124 | entospletinib -0.008

PRKCSH (UniProt P14314)
inactive: nilotinib 0.01 | [1] 0.016 | dasatinib 0.037 | [2] 0.041 | [3] -0.003 | quisinostat 0.088 | tipifarnib 0.008 | [4] -0.006 | [5] -0.004 | [6] 0.036 | [7] 0.002 | vorinostat 0.141 | silmitasertib -0.015 | [8] -0.001 | entospletinib 0.001

PRDX2 (UniProt P32119)
inactive: nilotinib -0.011 | [1] 0.006 | dasatinib 0.051 | [2] -0.034 | [3] -0.011 | quisinostat -0.001 | tipifarnib -0.009 | [4] -0.012 | [5] -0.01 | [6] 0.008 | [7] -0.007 | vorinostat 0.103 | silmitasertib -0.026 | [8] 0.009 | entospletinib 0.019

PRKAA1 isoform 2 (UniProt Q13131)
inactive: nilotinib -0.027 | [1] 0.186 | dasatinib 0.012 | [2] 0.071 | [3] 0.012 | quisinostat -0.009 | tipifarnib -0.048 | [4] 0.15 | [5] 0.047 | [6] 0.059 | [7] -0.094 | vorinostat -0.033 | silmitasertib 0.074 | [8] 0.029 | entospletinib 0.008

PRPF39 (UniProt Q86UA1)
inactive: nilotinib -0.031 | [1] -0.008 | dasatinib -0.023 | [2] 0.011 | [3] 0.007 | quisinostat -0.01 | tipifarnib 0.001 | [4] 0.06 | [5] 0.005 | [6] -0.056 | [7] 0.002 | vorinostat -0.06 | silmitasertib 0.008 | [8] -0.009 | entospletinib 0.022

PPM1E (UniProt Q8WY54)
inactive: nilotinib 0.028 | [1] -0.059 | dasatinib 0.074 | [2] 0.139 | [3] 0.043 | quisinostat -0.019 | tipifarnib 0.017 | [4] -0.03 | [5] -0.045 | [6] 0.045 | [7] 0.008 | vorinostat -0.019 | silmitasertib 0.007 | [8] -0.1 | entospletinib -0.01

PRDX1 (UniProt Q06830)
inactive: nilotinib 0.003 | [1] 0.002 | dasatinib 0.024 | [2] -0.005 | [3] -0.042 | quisinostat 0.005 | tipifarnib 0.01 | [4] 0.005 | [5] -0.019 | [6] -0.014 | [7] 0.005 | vorinostat 0.122 | silmitasertib -0.024 | [8] -0.005 | entospletinib 0.017

PRKACA (UniProt P17612)
inactive: nilotinib -0.055 | dasatinib 0.07 | [2] 0.068 | [3] 0.049 | quisinostat 0.097 | tipifarnib -0.083 | [5] 0.273 | [6] -0.038 | [7] -0.114 | vorinostat 0.007 | silmitasertib -0.02 | [8] 0.033 | entospletinib 0.03
active: [1] 0.638 | [4] 0.637

PRMT9 (UniProt Q6P2P2)
inactive: nilotinib 0.001 | [1] 0.016 | dasatinib 0.012 | [2] -0.029 | [3] 0.031 | quisinostat -0.029 | tipifarnib 0.014 | [4] 0.051 | [5] -0.028 | [6] 0.017 | [7] 0.008 | vorinostat 0.002 | silmitasertib -0.013 | [8] 0.019 | entospletinib 0.002

PRKCA (UniProt P17252)
inactive: nilotinib -0.008 | [1] 0.227 | dasatinib -0.028 | [2] 0.095 | [3] -0.056 | quisinostat -0.035 | tipifarnib 0 | [4] -0.067 | [6] -0.006 | [7] -0.045 | vorinostat -0.14 | silmitasertib 0.044 | [8] 0.087 | entospletinib 0.018
active: [5] 0.408

PREP (UniProt P48147)
inactive: nilotinib 0 | [1] -0.014 | dasatinib -0.026 | [2] -0.002 | [3] 0.007 | quisinostat 0.008 | tipifarnib 0.023 | [4] 0.011 | [5] 0.006 | [6] -0.005 | [7] 0.006 | vorinostat -0.153 | silmitasertib 0.008 | [8] -0.01 | entospletinib 0.014

PPP2R5D (UniProt Q14738)
inactive: nilotinib 0.004 | [1] 0.014 | dasatinib -0.016 | [2] -0.011 | [3] 0.042 | quisinostat 0.028 | tipifarnib 0.013 | [4] 0.027 | [5] -0.021 | [6] 0.012 | [7] 0.002 | vorinostat -0.071 | silmitasertib 0.05 | [8] -0.018 | entospletinib 0.032

5 consecutive records from above, for reference:
PRDX2 (UniProt P32119)
inactive: nilotinib -0.011 | [1] 0.006 | dasatinib 0.051 | [2] -0.034 | [3] -0.011 | quisinostat -0.001 | tipifarnib -0.009 | [4] -0.012 | [5] -0.01 | [6] 0.008 | [7] -0.007 | vorinostat 0.103 | silmitasertib -0.026 | [8] 0.009 | entospletinib 0.019

PRKAA1 isoform 2 (UniProt Q13131)
inactive: nilotinib -0.027 | [1] 0.186 | dasatinib 0.012 | [2] 0.071 | [3] 0.012 | quisinostat -0.009 | tipifarnib -0.048 | [4] 0.15 | [5] 0.047 | [6] 0.059 | [7] -0.094 | vorinostat -0.033 | silmitasertib 0.074 | [8] 0.029 | entospletinib 0.008

PRPF39 (UniProt Q86UA1)
inactive: nilotinib -0.031 | [1] -0.008 | dasatinib -0.023 | [2] 0.011 | [3] 0.007 | quisinostat -0.01 | tipifarnib 0.001 | [4] 0.06 | [5] 0.005 | [6] -0.056 | [7] 0.002 | vorinostat -0.06 | silmitasertib 0.008 | [8] -0.009 | entospletinib 0.022

PPM1E (UniProt Q8WY54)
inactive: nilotinib 0.028 | [1] -0.059 | dasatinib 0.074 | [2] 0.139 | [3] 0.043 | quisinostat -0.019 | tipifarnib 0.017 | [4] -0.03 | [5] -0.045 | [6] 0.045 | [7] 0.008 | vorinostat -0.019 | silmitasertib 0.007 | [8] -0.1 | entospletinib -0.01

PRDX1 (UniProt Q06830)
inactive: nilotinib 0.003 | [1] 0.002 | dasatinib 0.024 | [2] -0.005 | [3] -0.042 | quisinostat 0.005 | tipifarnib 0.01 | [4] 0.005 | [5] -0.019 | [6] -0.014 | [7] 0.005 | vorinostat 0.122 | silmitasertib -0.024 | [8] -0.005 | entospletinib 0.017

Later entries.

PRIM2 (UniProt P49643)
active: vorinostat -0.296
inactive: nilotinib 0.052 | [1] 0.007 | dasatinib -0.038 | [2] -0.012 | [3] 0.02 | quisinostat -0.027 | tipifarnib -0.037 | [4] 0.018 | [5] -0.001 | [6] -0.021 | [7] -0.008 | silmitasertib 0.09 | [8] 0 | entospletinib 0.003

PRCP (UniProt P42785)
inactive: nilotinib 0.013 | [1] 0 | dasatinib -0.023 | [2] 0.055 | [3] 0.016 | quisinostat 0.007 | tipifarnib 0.04 | [4] 0.012 | [5] 0.005 | [6] 0.077 | [7] -0.007 | vorinostat 0.138 | silmitasertib -0.011 | [8] 0.003 | entospletinib 0.006

PRPF31 (UniProt Q8WWY3)
inactive: nilotinib 0.004 | [1] -0.006 | dasatinib -0.01 | [2] -0.022 | [3] 0.024 | quisinostat -0.031 | tipifarnib 0.022 | [4] 0.021 | [5] -0.016 | [6] -0.001 | [7] -0.023 | vorinostat -0.213 | silmitasertib 0.005 | [8] -0.029 | entospletinib 0.027

PRPF38A (UniProt Q8NAV1)
inactive: nilotinib 0.076 | [1] 0.018 | dasatinib -0.055 | [2] -0.088 | [3] -0.001 | tipifarnib -0.016 | [4] 0.092 | [5] 0.003 | [6] 0.049 | [7] -0.059 | vorinostat -0.278 | silmitasertib 0.03 | [8] 0.03 | entospletinib 0.055
active: quisinostat -0.452

PPP1R7 (UniProt Q15435)
inactive: nilotinib -0.004 | [1] 0.008 | dasatinib -0.023 | [2] -0.028 | [3] 0.033 | quisinostat -0.025 | tipifarnib 0.016 | [4] -0.023 | [5] -0.004 | [6] 0.021 | [7] -0.012 | vorinostat 0.068 | silmitasertib -0.003 | [8] -0.006 | entospletinib -0.013
